{"sequences": {"note": "Chains of the proteins cited; added tags and fusions are not shown. Lines headed by an entry give the natural chain unless they say otherwise; changes in a name come on top. Residues count along the entry.", "UniProt P62195": "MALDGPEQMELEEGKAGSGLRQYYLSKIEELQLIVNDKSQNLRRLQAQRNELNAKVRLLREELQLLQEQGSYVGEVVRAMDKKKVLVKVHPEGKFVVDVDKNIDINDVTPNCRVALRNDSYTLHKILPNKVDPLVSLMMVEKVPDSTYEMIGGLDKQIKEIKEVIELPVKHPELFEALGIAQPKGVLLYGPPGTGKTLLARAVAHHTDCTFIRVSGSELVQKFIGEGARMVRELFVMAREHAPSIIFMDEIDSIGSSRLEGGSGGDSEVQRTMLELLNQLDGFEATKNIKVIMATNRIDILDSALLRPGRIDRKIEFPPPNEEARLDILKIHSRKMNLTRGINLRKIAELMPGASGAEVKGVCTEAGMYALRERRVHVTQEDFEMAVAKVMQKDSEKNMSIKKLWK", "UniProt O08537, residues 46-530": "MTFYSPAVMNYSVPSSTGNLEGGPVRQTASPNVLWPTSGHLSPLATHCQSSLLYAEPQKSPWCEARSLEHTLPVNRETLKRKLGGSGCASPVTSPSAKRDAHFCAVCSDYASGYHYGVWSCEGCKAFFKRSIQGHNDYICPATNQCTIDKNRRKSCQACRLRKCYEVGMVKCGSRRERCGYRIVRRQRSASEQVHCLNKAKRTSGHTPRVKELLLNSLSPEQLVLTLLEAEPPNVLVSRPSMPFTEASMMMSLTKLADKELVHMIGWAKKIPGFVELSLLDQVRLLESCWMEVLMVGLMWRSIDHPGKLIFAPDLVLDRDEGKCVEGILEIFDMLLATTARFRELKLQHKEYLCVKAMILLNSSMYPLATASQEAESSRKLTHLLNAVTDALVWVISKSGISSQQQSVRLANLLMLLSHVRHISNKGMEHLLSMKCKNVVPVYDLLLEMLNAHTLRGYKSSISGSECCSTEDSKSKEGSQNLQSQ", "UniProt P04386": "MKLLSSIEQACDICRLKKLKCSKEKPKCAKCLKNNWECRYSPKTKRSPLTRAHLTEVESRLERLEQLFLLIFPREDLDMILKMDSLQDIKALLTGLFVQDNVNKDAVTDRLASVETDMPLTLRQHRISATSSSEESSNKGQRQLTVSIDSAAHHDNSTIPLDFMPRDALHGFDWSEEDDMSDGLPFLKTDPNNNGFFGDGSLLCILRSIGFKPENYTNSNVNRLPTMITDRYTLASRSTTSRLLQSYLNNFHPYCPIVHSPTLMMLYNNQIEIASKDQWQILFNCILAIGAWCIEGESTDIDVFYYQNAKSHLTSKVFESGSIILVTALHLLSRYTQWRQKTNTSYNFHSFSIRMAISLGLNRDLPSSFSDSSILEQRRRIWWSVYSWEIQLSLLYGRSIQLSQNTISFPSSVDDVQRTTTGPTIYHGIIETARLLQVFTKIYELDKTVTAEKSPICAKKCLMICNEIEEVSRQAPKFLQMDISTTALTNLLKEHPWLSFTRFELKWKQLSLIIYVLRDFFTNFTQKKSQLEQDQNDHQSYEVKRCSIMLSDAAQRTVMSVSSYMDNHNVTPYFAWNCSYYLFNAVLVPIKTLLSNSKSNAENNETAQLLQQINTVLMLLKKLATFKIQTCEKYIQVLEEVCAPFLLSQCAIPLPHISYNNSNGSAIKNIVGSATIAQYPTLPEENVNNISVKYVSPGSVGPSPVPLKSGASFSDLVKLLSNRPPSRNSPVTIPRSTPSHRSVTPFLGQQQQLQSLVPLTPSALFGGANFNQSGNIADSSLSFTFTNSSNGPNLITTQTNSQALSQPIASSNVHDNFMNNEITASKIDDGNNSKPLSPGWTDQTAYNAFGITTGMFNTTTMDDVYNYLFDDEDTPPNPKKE"}, "source": "patent US6867008", "key": {"[1]": {"target": "GST-EC1 (sheep)", "test": "GST pull-down, SDS-PAGE and autoradiography"}, "[2]": {"target": "Trip 1/AD (TRIP1 homolog clone fused to the Gal4 activating domain) (human) (UniProt P62195)", "test": "yeast two-hybrid in Y190, growth on Sc-His and β-galactosidase colony lift"}, "[3]": {"target": "EC1/AD (ovine clone EC1, MAD2 homolog, fused to the Gal4 activating domain, vector pGAD10) (sheep)", "test": "yeast two-hybrid in Y190, growth on Sc-His and β-galactosidase colony lift"}}, "note": "Results are given in words; binding and its absence hold for the method and conditions named. For part of these data: Binding seen in cells or lysates may run through a third protein. Some binding calls cover weakened binding; strength is not graded here."}
{"substance": "[35S]mERβ (in vitro translated mouse estrogen receptor beta) (from UniProt O08537 46-530)", "values": [{"measurement": "binding", "setting": "[1]", "result": "binds"}]}
{"substance": "hERα/BD (human estrogen receptor alpha fused to the Gal4 DNA binding domain) (from UniProt P04386 1-147; P03372 1-595)", "values": [{"measurement": "binding", "setting": "[2]", "result": "binds"}]}
{"substance": "mERβ/BD (full-length mouse estrogen receptor beta fused to the Gal4 DNA binding domain, vector pGBT9) (from UniProt P04386 1-147; O08537 1-530)", "values": [{"measurement": "binding", "setting": "[3]", "result": "binds"}]}
